Laboratory results: paper doi:10.1101/078337
These are yes or no findings as the source states them, for the method shown. In cells and extracts the contact can be indirect. Some binding calls cover weakened binding; strength is not graded here. For part of these data: Sequences can lack the tags named with a protein.

By UniProt entry, the sequences of proteins in these tests, tags left out.
UniProt Q9UKB1: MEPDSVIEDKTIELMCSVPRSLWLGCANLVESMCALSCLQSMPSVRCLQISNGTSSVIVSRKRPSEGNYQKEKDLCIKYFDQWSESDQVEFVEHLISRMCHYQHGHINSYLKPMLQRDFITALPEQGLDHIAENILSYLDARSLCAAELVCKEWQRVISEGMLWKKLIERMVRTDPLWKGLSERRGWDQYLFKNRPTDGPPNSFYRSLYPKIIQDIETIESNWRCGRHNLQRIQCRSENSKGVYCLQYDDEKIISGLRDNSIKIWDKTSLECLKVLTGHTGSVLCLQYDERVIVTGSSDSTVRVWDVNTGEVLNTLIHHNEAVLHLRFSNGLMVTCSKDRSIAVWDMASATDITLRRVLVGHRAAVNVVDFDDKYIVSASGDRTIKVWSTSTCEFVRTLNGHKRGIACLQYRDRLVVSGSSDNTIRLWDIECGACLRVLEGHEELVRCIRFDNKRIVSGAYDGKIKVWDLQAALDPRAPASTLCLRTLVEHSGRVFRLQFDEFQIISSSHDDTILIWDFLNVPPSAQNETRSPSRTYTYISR
UniProt Q9Y297: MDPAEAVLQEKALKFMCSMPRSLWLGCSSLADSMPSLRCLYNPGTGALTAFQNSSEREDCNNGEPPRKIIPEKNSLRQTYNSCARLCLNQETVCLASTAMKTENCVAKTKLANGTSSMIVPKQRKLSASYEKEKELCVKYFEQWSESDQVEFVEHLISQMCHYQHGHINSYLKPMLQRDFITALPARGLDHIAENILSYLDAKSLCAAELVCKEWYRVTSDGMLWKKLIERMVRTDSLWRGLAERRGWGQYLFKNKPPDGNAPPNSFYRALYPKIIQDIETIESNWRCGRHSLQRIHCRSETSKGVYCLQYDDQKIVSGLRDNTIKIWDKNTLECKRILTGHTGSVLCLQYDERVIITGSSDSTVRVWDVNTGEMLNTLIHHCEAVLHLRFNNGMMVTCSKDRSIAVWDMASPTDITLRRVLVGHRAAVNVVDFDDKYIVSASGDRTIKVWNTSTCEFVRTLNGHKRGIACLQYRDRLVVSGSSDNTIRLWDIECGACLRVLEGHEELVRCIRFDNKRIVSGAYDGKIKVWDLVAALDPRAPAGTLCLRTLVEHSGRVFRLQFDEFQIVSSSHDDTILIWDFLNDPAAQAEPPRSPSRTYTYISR
UniProt Q24311: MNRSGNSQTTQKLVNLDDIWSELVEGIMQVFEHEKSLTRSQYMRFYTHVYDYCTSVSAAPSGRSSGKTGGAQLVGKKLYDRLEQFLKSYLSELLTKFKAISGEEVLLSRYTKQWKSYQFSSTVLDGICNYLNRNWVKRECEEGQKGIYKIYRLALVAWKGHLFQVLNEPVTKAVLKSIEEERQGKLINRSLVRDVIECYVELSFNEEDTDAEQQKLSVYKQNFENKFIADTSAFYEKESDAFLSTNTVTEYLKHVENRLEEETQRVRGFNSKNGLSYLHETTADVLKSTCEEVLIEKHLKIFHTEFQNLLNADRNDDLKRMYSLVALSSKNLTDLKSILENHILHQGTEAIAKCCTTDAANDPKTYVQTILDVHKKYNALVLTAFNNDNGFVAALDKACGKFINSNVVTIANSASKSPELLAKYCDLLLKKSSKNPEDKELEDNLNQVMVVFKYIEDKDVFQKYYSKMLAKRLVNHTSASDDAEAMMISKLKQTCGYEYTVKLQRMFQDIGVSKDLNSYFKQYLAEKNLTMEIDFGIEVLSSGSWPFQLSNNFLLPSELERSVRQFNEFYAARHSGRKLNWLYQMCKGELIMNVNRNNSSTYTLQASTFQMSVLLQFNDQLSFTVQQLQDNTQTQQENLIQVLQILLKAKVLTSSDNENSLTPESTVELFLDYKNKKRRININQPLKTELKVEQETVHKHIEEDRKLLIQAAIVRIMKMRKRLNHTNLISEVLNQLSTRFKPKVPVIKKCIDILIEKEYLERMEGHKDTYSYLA
UniProt O77430: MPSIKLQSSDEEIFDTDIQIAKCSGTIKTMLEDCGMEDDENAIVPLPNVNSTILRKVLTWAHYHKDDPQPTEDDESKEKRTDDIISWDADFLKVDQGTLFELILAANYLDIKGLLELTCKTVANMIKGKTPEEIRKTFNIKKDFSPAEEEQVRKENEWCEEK
UniProt Q05856: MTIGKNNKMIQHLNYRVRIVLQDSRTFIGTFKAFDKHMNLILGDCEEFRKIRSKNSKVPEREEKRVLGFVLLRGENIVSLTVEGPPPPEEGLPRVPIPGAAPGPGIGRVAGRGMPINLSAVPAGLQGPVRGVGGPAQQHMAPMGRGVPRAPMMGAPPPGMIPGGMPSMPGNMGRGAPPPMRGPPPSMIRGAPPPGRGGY
UniProt Q16637: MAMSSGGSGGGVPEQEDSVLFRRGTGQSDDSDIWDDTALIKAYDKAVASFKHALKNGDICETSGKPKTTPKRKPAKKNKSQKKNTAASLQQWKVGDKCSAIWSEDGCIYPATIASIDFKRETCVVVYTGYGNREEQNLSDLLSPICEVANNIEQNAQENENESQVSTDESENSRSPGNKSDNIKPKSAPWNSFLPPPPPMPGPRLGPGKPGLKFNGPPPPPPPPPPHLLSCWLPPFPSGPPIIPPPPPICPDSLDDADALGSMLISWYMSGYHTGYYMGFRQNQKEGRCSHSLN

Experiments:
Assay in all cases: co-IP
[1] = target: T1, Flag-SMN (Drosophila SMN from the Flag-Smn^WT transgene) (Drosophila melanogaster) (UniProt Q9VV74)
T1 sequence: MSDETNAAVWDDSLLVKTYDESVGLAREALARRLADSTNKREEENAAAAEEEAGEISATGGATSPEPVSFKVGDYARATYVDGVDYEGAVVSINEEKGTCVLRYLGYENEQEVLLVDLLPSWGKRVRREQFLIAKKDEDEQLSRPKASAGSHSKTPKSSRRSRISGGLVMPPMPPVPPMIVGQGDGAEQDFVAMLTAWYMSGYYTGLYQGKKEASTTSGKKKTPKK

[2] = target: Flag-B-TrCP2 (human) (human) (UniProt Q9UKB1)
[3] = target: Flag-B-TrCP1 (human) (human) (UniProt Q9Y297)
[4] = target: Drosophila Flag-Cul1 (in HEK 293T cells) (Drosophila) (UniProt Q24311)
[5] = target: Drosophila Flag-SkpA (in HEK 293T cells) (Drosophila) (UniProt O77430)
[6] = target: SkpA-Flag (Drosophila SkpA, in S2 cells) (Drosophila) (UniProt O77430)
[7] = target: Cul1-Flag (Drosophila Cul1, in S2 cells) (Drosophila) (UniProt Q24311)
[8] = target: T2, Flag-SMN (Drosophila SMN from the Flag-Smn^WT transgene) (Drosophila melanogaster), Q9VV74; conditions: remark: other sources report otherwise
T2 chain: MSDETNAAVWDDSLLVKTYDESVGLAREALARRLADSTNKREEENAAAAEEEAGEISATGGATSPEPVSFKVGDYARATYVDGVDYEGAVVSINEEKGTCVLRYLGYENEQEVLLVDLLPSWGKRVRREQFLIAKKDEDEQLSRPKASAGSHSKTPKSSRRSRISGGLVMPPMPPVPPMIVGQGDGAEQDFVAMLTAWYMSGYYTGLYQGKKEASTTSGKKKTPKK

SmB (Drosophila) (from UniProt Q05856 1-199)
binding [1]: binds

endogenous human SMN of HEK 293T cells (from UniProt Q16637 1-294)
binding [2]: binds | binding [3]: binds | binding [4]: binds | binding [5]: binds

B1: endogenous SMN of Drosophila S2 cells (protein, UniProt Q9VV74 1-226)
chain: MSDETNAAVWDDSLLVKTYDESVGLAREALARRLADSTNKREEENAAAAEEEAGEISATGGATSPEPVSFKVGDYARATYVDGVDYEGAVVSINEEKGTCVLRYLGYENEQEVLLVDLLPSWGKRVRREQFLIAKKDEDEQLSRPKASAGSHSKTPKSSRRSRISGGLVMPPMPPVPPMIVGQGDGAEQDFVAMLTAWYMSGYYTGLYQGKKEASTTSGKKKTPKK
binding [6]: binds | binding [7]: binds

B2: SmD3 (Drosophila) (protein, UniProt O44437 1-151)
chain: MSIGVPIKVLHEAEGHIITCETITGEVYRGKLIEAEDNMNCQMTQITVTYRDGRTANLENVYIRGSKIRFLILPDMLKNAPMFKKQTGKGLGGTAGRGKAAILRAQARGRGRGGPPGGGRGTGGPPGAPGGSGGRGAWQGGPTGGRGRGGL
binding [1]: binds

B3: α-Actinin (Drosophila), P18091 1-917 (protein)
chain: MMMENGLSMEYGDGYMEQEEEWEREGLLDPAWEKQQKKTFTAWCNSHLRKAGTAIDNIEEDFRNGLKLMLLLEVISGETLPKPDRGKMRFHKIANVNKALDFIASKGVHLVSIGAEEIVDGNLKMTLGMIWTIILRFAIQDISVEEMTAKEGLLLWCQRKTAPYKNVNVQNFHLSFKDGLAFCALIHRHRPDLIDYAKLSKDNPLENLNTAFDVAEKYLDIPRMLDPDDLINTPKPDERAIMTYVSCYYHAFQGAQQVGNVTHVPEPTRQYTYVPNNYNAETAANRICKVLKVNQENERLMEEYERLASDLLEWIRRTMPWLNSRQADNSLAGVQKKLEEYRTYRRKHKPPRVEQKAKLETNFNTLQTKLRLSNRPAYLPTEGKTVSDISNSWKGLELAEKAFEEWLLAETMRLERLEHLAQKFKHKADAHEDWTRGKEEMLQSQDFRQCKLNELKALKKKHEAFESDLAAHQDRVEQIAAIAQELNTLEYHDCVSVNARCQRICDQWDRLGALTQRRRTALDEAERILEKIDILHLEFAKRAAPFNNWLDGTREDLVDMFIVHTMEEIQGLIQAHDQFKATLGEADKEFNLIVNLVREVESIVKQHQIPGGLENPYTTLTANDMTRKWSDVRQLVPQRDQTLANELRKQQNNEMLRRQFAEKANIVGPWIERQMDAVTAIGMGLQGSLEDQLHRLKEYEQAVYAYKPNIEELEKIHQAVQESMIFENRYTNYTMETLRVGWEQLLTSINRNINEVENQILTRDSKGISQEQLNEFRSSFNHFDKNRTGRLSPEEFKSCLVSLGYSIGKDRQGDLDFQRILAVVDPNNTGYVHFDAFLDFMTRESTDTDTAEQVIDSFRILAADKPYILPDELRRELPPDQAEYCIQRMPPYKGPNGVPGALDYMSFSTALYGETDL
binding [8]: no binding
